The text below walks through data of the supplement of paper PMC10849652.

By UniProt entry, the sequences of proteins in these tests, tags left out. Where a name states a change or a piece, a line headed by the entry shows the natural chain unless it says otherwise.
UniProt O75356: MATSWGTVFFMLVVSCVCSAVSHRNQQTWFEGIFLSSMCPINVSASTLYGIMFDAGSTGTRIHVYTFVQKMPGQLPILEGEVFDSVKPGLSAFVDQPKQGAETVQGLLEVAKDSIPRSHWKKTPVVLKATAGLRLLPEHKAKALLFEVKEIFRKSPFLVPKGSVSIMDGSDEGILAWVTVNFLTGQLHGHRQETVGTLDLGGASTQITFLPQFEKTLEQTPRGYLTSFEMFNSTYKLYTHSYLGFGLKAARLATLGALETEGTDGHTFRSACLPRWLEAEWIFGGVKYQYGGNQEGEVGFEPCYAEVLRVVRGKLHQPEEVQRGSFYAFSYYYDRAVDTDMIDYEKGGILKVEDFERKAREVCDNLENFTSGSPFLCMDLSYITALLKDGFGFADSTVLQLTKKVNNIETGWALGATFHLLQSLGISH
UniProt Q14156: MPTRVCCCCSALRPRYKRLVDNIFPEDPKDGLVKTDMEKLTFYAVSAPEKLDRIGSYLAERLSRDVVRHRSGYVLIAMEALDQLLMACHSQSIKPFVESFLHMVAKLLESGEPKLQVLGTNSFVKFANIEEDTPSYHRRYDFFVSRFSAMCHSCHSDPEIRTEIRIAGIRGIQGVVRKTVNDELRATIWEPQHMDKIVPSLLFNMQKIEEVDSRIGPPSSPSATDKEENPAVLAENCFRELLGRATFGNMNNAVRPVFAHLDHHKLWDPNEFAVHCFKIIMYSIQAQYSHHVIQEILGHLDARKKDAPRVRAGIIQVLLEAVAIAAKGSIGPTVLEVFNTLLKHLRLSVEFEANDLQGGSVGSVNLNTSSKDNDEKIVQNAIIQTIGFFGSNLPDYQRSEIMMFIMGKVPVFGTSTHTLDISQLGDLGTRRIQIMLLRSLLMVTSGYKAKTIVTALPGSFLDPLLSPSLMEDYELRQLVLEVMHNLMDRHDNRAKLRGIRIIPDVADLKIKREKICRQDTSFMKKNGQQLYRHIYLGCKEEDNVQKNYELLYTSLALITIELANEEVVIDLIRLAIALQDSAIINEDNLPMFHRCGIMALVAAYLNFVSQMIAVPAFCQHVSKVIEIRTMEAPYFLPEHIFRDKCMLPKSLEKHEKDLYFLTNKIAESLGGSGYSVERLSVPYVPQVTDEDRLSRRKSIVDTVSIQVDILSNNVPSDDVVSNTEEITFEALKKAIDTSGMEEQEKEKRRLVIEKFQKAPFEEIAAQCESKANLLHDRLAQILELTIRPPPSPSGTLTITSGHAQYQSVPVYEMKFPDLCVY
UniProt P18146, whole entry, looked up: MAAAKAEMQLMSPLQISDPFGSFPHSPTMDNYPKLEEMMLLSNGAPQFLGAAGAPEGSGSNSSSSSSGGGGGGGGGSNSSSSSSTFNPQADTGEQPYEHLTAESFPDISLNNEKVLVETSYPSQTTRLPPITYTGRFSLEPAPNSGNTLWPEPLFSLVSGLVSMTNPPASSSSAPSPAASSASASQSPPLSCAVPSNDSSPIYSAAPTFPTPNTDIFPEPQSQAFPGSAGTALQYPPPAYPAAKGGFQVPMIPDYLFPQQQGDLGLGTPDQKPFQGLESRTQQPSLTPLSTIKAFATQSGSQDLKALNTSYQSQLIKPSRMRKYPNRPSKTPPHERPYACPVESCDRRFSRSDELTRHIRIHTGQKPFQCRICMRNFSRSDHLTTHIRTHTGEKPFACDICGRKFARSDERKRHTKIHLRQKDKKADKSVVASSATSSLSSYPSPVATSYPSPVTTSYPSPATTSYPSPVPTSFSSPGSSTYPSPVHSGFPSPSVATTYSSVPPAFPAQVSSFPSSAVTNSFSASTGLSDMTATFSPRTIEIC
UniProt O43432, whole entry, looked up: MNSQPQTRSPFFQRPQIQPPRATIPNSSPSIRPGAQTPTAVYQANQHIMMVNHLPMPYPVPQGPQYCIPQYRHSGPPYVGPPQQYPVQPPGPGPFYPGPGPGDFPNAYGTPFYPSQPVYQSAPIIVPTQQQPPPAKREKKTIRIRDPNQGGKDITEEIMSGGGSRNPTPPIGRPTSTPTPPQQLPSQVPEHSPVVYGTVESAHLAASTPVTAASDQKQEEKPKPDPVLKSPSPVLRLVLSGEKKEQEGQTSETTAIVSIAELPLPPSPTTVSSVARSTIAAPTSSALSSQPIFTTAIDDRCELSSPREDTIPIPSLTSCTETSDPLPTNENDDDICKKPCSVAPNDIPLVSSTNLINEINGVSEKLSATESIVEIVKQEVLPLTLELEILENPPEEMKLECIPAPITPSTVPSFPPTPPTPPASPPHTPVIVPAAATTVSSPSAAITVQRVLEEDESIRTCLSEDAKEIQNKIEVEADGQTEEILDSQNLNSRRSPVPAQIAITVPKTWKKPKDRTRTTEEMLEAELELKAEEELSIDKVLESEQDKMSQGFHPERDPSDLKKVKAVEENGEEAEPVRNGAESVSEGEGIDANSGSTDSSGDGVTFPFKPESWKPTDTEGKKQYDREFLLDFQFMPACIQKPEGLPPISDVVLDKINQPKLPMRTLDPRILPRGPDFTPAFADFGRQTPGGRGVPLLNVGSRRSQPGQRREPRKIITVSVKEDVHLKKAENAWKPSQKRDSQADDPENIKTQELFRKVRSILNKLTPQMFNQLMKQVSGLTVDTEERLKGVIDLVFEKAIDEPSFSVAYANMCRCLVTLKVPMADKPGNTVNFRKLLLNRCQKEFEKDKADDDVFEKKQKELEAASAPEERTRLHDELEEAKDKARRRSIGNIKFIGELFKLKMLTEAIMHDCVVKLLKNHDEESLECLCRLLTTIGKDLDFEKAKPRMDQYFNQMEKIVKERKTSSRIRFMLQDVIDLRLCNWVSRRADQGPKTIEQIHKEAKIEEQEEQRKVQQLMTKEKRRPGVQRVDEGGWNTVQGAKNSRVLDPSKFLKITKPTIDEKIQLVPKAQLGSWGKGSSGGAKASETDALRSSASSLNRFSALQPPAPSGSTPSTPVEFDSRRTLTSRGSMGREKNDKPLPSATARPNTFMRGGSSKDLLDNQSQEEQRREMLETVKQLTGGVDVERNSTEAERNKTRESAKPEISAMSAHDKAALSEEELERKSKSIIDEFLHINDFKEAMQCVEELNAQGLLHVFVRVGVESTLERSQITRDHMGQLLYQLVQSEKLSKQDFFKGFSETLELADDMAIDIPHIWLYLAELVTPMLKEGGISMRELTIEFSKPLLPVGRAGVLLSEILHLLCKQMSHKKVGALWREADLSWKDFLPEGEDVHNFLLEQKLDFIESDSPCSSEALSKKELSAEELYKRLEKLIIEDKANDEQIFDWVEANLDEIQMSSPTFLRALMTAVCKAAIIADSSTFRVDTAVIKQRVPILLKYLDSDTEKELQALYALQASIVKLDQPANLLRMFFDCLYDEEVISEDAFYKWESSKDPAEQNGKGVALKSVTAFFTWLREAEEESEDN
UniProt Q09472, whole entry, looked up: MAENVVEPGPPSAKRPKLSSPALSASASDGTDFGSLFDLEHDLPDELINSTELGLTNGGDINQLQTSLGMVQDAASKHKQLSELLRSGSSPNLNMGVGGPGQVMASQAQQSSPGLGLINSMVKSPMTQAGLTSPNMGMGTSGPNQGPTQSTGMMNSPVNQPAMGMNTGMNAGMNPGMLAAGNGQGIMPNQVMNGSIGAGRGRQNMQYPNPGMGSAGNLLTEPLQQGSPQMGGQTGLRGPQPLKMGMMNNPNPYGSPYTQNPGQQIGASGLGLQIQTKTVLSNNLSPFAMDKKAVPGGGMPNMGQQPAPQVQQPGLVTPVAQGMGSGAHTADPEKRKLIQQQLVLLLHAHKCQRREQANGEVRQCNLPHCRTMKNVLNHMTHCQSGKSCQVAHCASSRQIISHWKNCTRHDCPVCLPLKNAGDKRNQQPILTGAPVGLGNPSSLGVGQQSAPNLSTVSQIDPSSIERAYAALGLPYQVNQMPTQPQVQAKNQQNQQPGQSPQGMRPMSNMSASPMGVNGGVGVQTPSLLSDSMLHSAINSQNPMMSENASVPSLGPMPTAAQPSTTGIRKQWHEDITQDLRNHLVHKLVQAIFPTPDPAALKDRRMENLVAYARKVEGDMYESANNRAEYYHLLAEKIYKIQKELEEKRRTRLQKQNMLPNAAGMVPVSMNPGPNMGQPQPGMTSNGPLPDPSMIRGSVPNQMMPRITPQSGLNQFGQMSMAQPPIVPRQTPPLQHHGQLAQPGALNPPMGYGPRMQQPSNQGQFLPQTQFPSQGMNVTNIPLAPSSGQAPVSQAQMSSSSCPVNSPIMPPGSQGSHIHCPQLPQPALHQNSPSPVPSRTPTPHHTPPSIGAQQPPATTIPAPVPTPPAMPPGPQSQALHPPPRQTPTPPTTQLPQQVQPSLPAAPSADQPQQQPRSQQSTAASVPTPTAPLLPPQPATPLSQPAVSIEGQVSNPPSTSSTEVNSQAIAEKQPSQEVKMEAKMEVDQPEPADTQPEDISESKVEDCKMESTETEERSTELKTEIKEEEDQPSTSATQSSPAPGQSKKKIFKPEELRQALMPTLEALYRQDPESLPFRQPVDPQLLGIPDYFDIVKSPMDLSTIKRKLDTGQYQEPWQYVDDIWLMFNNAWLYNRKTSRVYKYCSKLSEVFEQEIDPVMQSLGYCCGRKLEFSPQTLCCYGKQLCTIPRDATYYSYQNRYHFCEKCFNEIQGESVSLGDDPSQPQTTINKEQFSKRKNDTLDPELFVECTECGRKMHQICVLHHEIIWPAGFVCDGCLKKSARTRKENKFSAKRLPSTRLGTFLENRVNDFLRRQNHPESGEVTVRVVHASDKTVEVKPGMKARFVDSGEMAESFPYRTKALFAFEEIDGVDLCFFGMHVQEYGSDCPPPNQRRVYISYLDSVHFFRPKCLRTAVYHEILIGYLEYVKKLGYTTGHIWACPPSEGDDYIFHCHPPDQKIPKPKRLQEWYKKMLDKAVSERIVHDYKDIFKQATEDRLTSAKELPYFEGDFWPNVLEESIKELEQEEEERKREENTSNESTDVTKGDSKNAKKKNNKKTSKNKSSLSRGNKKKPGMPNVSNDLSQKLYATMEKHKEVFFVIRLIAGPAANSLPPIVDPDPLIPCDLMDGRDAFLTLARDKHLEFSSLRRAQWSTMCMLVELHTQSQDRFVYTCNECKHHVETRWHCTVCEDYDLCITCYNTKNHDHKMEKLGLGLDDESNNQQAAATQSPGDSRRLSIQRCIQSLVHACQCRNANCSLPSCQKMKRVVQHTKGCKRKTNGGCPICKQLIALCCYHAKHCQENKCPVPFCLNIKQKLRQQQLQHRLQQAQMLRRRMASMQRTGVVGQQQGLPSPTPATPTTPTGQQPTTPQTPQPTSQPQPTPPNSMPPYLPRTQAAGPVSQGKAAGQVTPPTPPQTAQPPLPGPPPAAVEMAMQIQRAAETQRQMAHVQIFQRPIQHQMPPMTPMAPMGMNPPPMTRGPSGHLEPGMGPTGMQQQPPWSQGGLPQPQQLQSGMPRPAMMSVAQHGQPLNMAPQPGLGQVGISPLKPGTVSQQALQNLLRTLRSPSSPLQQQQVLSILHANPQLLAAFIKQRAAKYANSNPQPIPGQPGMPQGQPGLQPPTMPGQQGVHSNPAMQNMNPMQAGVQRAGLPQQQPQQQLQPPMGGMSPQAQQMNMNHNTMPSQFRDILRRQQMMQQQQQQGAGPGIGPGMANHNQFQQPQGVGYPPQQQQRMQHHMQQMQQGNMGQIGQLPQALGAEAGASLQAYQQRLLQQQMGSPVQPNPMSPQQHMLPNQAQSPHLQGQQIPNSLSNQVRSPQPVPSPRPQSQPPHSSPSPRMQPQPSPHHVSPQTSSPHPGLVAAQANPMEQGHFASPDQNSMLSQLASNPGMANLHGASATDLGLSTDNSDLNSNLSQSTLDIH
UniProt Q92979: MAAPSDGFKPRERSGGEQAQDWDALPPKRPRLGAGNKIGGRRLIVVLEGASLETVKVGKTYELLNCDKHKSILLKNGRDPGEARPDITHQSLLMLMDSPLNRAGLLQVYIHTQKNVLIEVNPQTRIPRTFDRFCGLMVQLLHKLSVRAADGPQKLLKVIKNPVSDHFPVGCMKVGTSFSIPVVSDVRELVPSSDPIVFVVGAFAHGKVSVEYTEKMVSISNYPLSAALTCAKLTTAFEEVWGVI
UniProt Q13541: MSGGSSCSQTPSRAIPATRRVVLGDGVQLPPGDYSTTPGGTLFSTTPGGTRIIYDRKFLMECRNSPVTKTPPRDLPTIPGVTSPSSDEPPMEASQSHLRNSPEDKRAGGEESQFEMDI
UniProt Q8TE02: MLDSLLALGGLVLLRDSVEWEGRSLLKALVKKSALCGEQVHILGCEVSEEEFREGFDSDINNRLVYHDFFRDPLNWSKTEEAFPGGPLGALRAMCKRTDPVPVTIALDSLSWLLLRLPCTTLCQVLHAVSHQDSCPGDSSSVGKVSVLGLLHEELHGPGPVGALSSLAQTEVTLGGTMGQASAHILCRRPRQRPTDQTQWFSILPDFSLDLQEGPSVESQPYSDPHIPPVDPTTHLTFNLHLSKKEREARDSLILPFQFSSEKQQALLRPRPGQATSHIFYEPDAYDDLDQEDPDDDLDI

This is one part of the list.

Assay in all cases: log2 fold change, soluble protein after heating vs DMSO (PISA); higher = thermal stabilisation; K562 cells, 10 uM, 30 min; active = over 0.2 and 3.5 SD of the protein, either way, in both replicates (recomputed)
Compound in experiment [1]: NC(=O)Nc1cc(-c2cccc(F)c2)sc1C(=O)N[C@H]1CCCNC1
The essentials:
(§1)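 K562 cells at 2×10^6 cells/mL were treated with 10 μM compound for 30 min. Aliquots were heated for 3 min across 48°C-58°C, pooled, and extracted in PBS with 0.5% NP-40 at 4°C; soluble protein was the supernatant after 21,000xg for 90 min. Soluble protein was quantified by TMTpro 16plex LC-MS/MS with channel sums equalised, and reported as log2 fold change in thermal stability against DMSO controls, with values from duplicates.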

Compound in experiment [2]: NC(=O)c1cnc(N[C@@H]2CCCC[C@@H]2N)nc1Nc1cccc(-n2nccn2)c1
The essentials:
as §1

Compound in experiment [3]: NC1(c2ccc(-c3nc4ccn5c(=O)[nH]nc5c4cc3-c3ccccc3)cc2)CCC1
The essentials:
as §1

Compound in experiment [4]: NCC(=O)Nc1ccc(-n2nc(C(F)(F)F)cc2-c2ccc3c(ccc4ccccc43)c2)cc1
Put shortly: as §1

Compound in the next experiment: Nc1ccccc1NC(=O)c1ccc(CNC(=O)OCc2cccnc2)cc1 [entinostat]
The essentials:
as §1

Compound in a further experiment: O=C(CCCCCCNC(=O)c1cnc(N(c2ccccc2)c2ccccc2Cl)nc1)NO [citarinostat]
Put shortly:
as §1

Compound in the next experiment: O=C(O)c1ccc2c(c1)nc(Nc1cccc(Cl)c1)c1ccncc12 [silmitasertib]
The essentials: as §1

Compound in experiment [5]: O=C1NC(=O)C(c2cnc3ccccn23)=C1c1cn2c3c(cc(F)cc13)CN(C(=O)N1CCCCC1)CC2
The essentials: as §1

Compound in experiment [6]: c1cc(OCCN2CCCCC2)cc(-c2n[nH]c3ccc(-c4nnc[nH]4)cc23)c1
Put shortly: as §1

Compound in a further experiment: c1cn2cc(-c3ccc4cn[nH]c4c3)nc(Nc3ccc(N4CCOCC4)cc3)c2n1 [entospletinib]
The essentials:
as §1

Compound in the next experiment: O=C(CCCCCCC(=O)Nc1ccccc1)NO [vorinostat]
Put shortly: as §1

In the case of ENTPD5 (UniProt O75356), the log2 fold change in experiment [1] was inactive: -0.063; in experiment [2], inactive: 0.06; in experiment [3] it was inactive: -0.022; in experiment [4], inactive: 0.118; with entinostat, inactive: -0.015; in the experiment with citarinostat, inactive: 0.029. Also, the log2 fold change was inactive: 0.022 with silmitasertib, inactive: 0.024 in experiment [5], inactive: 0.013 in experiment [6] and inactive: -0.079 in the experiment with entospletinib.
EIF3K (UniProt Q9UBQ5): the log2 fold change was inactive: 0.057 in experiment [1]; inactive: -0.05 in experiment [2]; inactive: -0.078 in experiment [3]; inactive: 0.024 in experiment [4]; inactive: 0.092 with entinostat; inactive: -0.006 with vorinostat. Also, the log2 fold change with citarinostat is inactive: 0.021; in the experiment with silmitasertib it was inactive: 0.008; in experiment [5], inactive: -0.019; in [6], inactive: -0.01; with entospletinib it was inactive: -0.036.
With ELAC1 (UniProt Q9H777), the log2 fold change in experiment [1] is inactive: 0.014; in [2], inactive: 0.053; in experiment [4], inactive: -0.082; with entinostat it was inactive: -0.202; with vorinostat it was inactive: 0.285; with citarinostat it was inactive: 0.05. The log2 fold change in [5] is inactive: 0.075; in [6] it was inactive: -0.05.
In the case of EFR3A (UniProt Q14156), the log2 fold change was inactive: -0.175 in [1]; inactive: 0.012 in [3]; inactive: -0.15 in experiment [4]; inactive: 0.039 with entinostat; inactive: -0.028 with silmitasertib; inactive: 0.039 in [5].
EGR1 (UniProt P18146): the log2 fold change in experiment [1] is inactive: -0.029; in experiment [2] it was inactive: -0.346; in [3], inactive: 0.345; in experiment [4] it was inactive: 0.066; in the experiment with entinostat, inactive: 0.091; with vorinostat it was inactive: -0.033. Moreover, the values for the log2 fold change (with silmitasertib; in [5]) were inactive: 0.085 and inactive: -0.109, respectively.
Turning to ENTPD6 (UniProt O75354), the log2 fold change was inactive: -0.212 in experiment [1]; inactive: 0.014 in experiment [2]; inactive: -0.071 in [3]; inactive: -0.075 with entinostat; inactive: -0.001 with vorinostat; inactive: 0.209 with citarinostat. In addition, the log2 fold change with silmitasertib was inactive: -0.012; in experiment [5], inactive: 0.222; in experiment [6], inactive: 0.08; in the experiment with entospletinib, inactive: -0.074.
Regarding EIF4G3 isoform 3 (UniProt O43432), the log2 fold change is inactive: 0.012 in experiment [1]; inactive: -0.092 in experiment [2]; inactive: -0.062 in experiment [3]; inactive: -0.016 in [4]; inactive: 0.01 with entinostat; inactive: -0.114 in the experiment with citarinostat. For the same target, the log2 fold change in the experiment with silmitasertib is inactive: 0.146; in experiment [6] it was active: -0.515.
Turning to EP300 (UniProt Q09472), the log2 fold change is inactive: -0.067 in experiment [1]; inactive: -0.061 in experiment [2]; inactive: -0.081 in [3]; inactive: 0 in [4]; inactive: 0.01 in the experiment with entinostat; inactive: 0.056 with vorinostat. Also, the log2 fold change is inactive: 0.077 in the experiment with citarinostat; inactive: -0.081 with silmitasertib; inactive: -0.172 in experiment [5]; inactive: -0.053 in [6]; inactive: 0.046 with entospletinib.
On to EGFL7 (UniProt Q9UHF1), for which the log2 fold change in experiment [1] is inactive: -0.002; in experiment [2], inactive: 0.028; in the experiment with entinostat it was inactive: -0.017; with vorinostat, inactive: -0.031; in [5], inactive: 0.126.
Consider EMG1 (UniProt Q92979), for which the log2 fold change in experiment [1] was inactive: 0.035; in experiment [2], inactive: 0.021; in [3], inactive: 0.08; in experiment [4], inactive: 0.045; in the experiment with entinostat it was inactive: 0.003; in the experiment with vorinostat, inactive: -0.024. Besides, the log2 fold change with citarinostat was inactive: -0.013; with silmitasertib, inactive: 0.05; in experiment [5], inactive: 0.067; in [6] it was inactive: -0.062; in the experiment with entospletinib, inactive: 0.048.
Consider EIF4EBP1 (UniProt Q13541), for which the log2 fold change in experiment [1] is inactive: -0.015; in experiment [2] it was inactive: -0.029; in experiment [3], inactive: 0.02; in [4], inactive: 0.061; with entinostat, inactive: -0.018; in the experiment with vorinostat, inactive: -0.026. Further, the log2 fold change in the experiment with citarinostat is inactive: 0.009; with silmitasertib, inactive: -0.026; in experiment [5], inactive: -0.055; in experiment [6] it was inactive: 0.076; with entospletinib it was inactive: -0.025.
As for EPB41, A0A2R8Y6D0, the log2 fold change in experiment [1] was inactive: -0.082; in experiment [2], inactive: -0.083; in experiment [3] it was inactive: 0.059; in experiment [4], inactive: 0.057; in the experiment with entinostat it was inactive: 0.103; with vorinostat, inactive: -0.114. Moreover, the log2 fold change in the experiment with citarinostat was inactive: -0.078; in the experiment with silmitasertib, inactive: 0.165; in experiment [6], inactive: -0.081; with entospletinib it was inactive: 0.214.
In the case of ELP5 isoform 4 (UniProt Q8TE02), the log2 fold change in experiment [1] is inactive: -0.022; in experiment [2] it was inactive: -0.08; in [3], inactive: -0.06; in experiment [4], inactive: 0; with entinostat it was inactive: -0.019; with vorinostat it was inactive: -0.004. The log2 fold change is inactive: -0.046 with citarinostat; inactive: -0.018 with silmitasertib; inactive: -0.026 in experiment [5]; inactive: -0.058 in [6]; inactive: -0.029 with entospletinib.
EP400 (UniProt Q96L91): the log2 fold change was inactive: 0.009 in experiment [1]; inactive: 0.242 in [3]; inactive: 0.07 in the experiment with entinostat; inactive: 0.254 with vorinostat; inactive: 0.115 with silmitasertib.
